Measurements published in patent publication US20040106134A1 (Regeneron, published 2004).
These are yes or no findings as the source states them, for the method shown. Binding seen in cells or lysates may run through a third protein. Some results given as binding are weak or reduced against the parent protein; the word gives no strength.

Target: T1, human BMP-4 (human) (UniProt P12644)
T1 sequence (looked up): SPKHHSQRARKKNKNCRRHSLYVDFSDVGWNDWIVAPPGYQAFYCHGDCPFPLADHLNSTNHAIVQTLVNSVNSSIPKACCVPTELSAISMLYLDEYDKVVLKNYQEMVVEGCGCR
Assay: competition with DCR5-myc3 for binding to hBMP4, co-immunoprecipitation with 9E10 beads

binding: binds
B1: Human DCR5 expressed in E. Coli, purified and refolded (protein)
chain: MSRKNRPAGAIPSPYKDGSSNNSERWQHQIKEVLASSQEALVVTERKYLKSDWCKTQPLRQTVSEEGCRSRTILNRFCYGQCNSFYIPRHVKKEEESFQSCAFCKPQRVTSVLVELECPGLDPPFRLKKIQKVKQCRCMSVNLSDSDKQ
